Laboratory results from the supplement of paper PMC3334620.
Whole data set: some 33,000 sequences, median “E-score (-0.5 to 0.5)” near -0.016, cut for the highest 2% near 0.3. The list shows a part of the results.

These sequences were tested against T1, Yer184c (UniProt P39961) (assay: PBM E-score (8-mer binding enrichment) (E-score (-0.5 to 0.5)); higher = stronger / more preferred TF binding). Settings: protein concentration: 100 nM; construct: GST-full length.
T1 sequence: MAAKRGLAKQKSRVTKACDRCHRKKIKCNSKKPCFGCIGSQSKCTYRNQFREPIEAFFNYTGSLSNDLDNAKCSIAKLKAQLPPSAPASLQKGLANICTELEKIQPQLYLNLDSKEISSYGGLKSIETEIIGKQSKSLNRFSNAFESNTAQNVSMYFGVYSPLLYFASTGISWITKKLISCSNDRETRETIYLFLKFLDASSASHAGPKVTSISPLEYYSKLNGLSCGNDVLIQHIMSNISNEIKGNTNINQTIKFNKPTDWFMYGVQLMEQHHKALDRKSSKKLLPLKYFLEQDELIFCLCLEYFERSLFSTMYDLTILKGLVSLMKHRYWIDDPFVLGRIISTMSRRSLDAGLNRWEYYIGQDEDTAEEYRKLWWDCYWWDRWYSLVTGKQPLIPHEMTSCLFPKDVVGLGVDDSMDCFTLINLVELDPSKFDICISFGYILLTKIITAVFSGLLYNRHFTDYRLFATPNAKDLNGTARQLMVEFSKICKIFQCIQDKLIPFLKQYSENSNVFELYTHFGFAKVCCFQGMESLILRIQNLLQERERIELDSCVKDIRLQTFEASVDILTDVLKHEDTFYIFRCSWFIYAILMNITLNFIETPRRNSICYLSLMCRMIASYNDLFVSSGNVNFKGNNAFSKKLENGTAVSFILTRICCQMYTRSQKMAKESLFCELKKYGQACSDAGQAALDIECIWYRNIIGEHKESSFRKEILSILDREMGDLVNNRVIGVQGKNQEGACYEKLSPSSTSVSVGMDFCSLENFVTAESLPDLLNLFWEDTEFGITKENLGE
Procedure, shortened: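 The E-score, a modified Wilcoxon-Mann-Whitney statistic, was computed by the Universal PBM Analysis Suite for every ungapped eight-base word pooled with its reverse complement. Scans behind it were normalised with masliner after bound GST-tagged yeast transcription factors were detected with fluorescent anti-GST. The proteins, at about 100-200 nM, had been applied to universal all-10-mer Agilent arrays made double-stranded by primer extension.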

| Sequence | PBM E-score |
| --- | --- |
| AACAGCCT | -0.0161 |
| ATCCTGAC | 0.00928 |
| ATGGCGTC | -0.0897 |
| AGCTTCCG | 0.259 |
| CCATGTCG | -0.136 |
| AAACGTGC | -0.0831 |
| CGAATTAA | 0.217 |
| ACAAGCCC | -0.199 |
| CCGGACCA | 0.297 |
| ACTTGCGA | 0.0706 |
| AAGTATAT | 0.196 |
| ATCAGTAG | -0.0144 |
| ATCCGACC | 0.0769 |
| AATTACTG | -0.117 |
| ACTGCGCA | 0.0628 |
| CATGGACC | -0.196 |
| ACAGTTGA | -0.148 |
| ACCCCATC | -0.212 |
| AGGTAAAG | 0.106 |
| CCCATAAC | -0.101 |
| AGTTTATA | 0.256 |
| AACTGGAG | -0.151 |

| Sequence | PBM E-score |
| --- | --- |
| AGGTCTGC | -0.229 |
| ATAGAAAC | 0.197 |
| CCGGTACC | 0.144 |
| AACGTATC | -0.122 |
| GTAAGGAC | -0.00218 |
| GTAACGGA | 0.304 |
| AAGAGCTT | 0.0391 |
| GTTTAAAC | 0.32 |
| ACAGGACG | -0.171 |
| TGTCCGAA | 0.334 |
| AGGTTGAG | -0.124 |
| ATAATGAC | -0.0838 |
| CTGCGCCA | -0.154 |
| AACTTCGC | 0.0292 |
| ACAGGAGC | -0.0234 |
| AACCTCTA | -0.123 |
| CTGTTTTC | 0.0971 |
| CCAGCAGG | -0.279 |
| GTGCGGTA | -0.0218 |
| CTTACTCA | -0.00888 |
| AGCTCAAT | 0.105 |
| AGTAGAGC | -0.169 |

| Sequence | PBM E-score |
| --- | --- |
| GATTCCAA | 0.0284 |
| GCGTGCCA | -0.206 |
| ATACTATC | 0.172 |
| CCCAGGAC | -0.246 |
| CGTGTAAG | 0.0257 |
| TATGACCA | 0.0653 |
| AATACTAC | 0.161 |
| AGTAGACG | 0.0179 |
| ACGCTATC | -0.204 |
| GAAGTGTA | -0.217 |
| CCTCCGTC | -0.198 |
| CGGGAAAG | 0.138 |
| ACGGTCAT | 0.173 |
| CTCTGACC | -0.154 |
| CTTCTGTC | 0.0435 |
| ACATGTAC | -0.102 |
| CGCATTTC | 0.106 |
| GGCTAACC | -0.123 |
| GCTCGTCA | -0.0503 |
| ACAGCTAC | -0.0776 |
| AAACTAAA | 0.0448 |
| CTAATGTA | 0.0943 |

| Sequence | PBM E-score |
| --- | --- |
| GAAGAAAC | 0.0669 |
| ATAACGCA | 0.0219 |
| GTAGGTAA | 0.0147 |
| TAACCACA | -0.182 |
| TGTAAACA | 0.0508 |
| CATCGCTA | 0.0244 |
| CCGGAAAG | 0.312 |
| GGCTCCAA | -0.0934 |
| AGAGTGGC | -0.217 |
| GATGAAGA | -0.0455 |
| ATCGCATC | 0.014 |
| GAGCCCGC | -0.212 |
| ATAGACCC | 0.156 |
| CAGTCGAC | 0.108 |
| AGTCTGTA | -0.192 |
| ACCCCCGA | -0.176 |
| GCATACCA | -0.117 |
| ACCCATGA | -0.335 |
| ACGGATGC | 0.203 |
| TGGATCAA | -0.0363 |
| CCAAATCA | 0.0108 |
| GGACGTAA | -0.109 |

As a short view, part of the list above:

| Sequence | PBM E-score |
| --- | --- |
| CCGGAAAG | 0.312 |
| GGCTCCAA | -0.0934 |
| AGAGTGGC | -0.217 |
| GATGAAGA | -0.0455 |
| ATCGCATC | 0.014 |

Shown with bars between the fields: part of the list above
Sequence | PBM E-score
GATGAAGA | -0.0455
ACCCATGA | -0.335

(cont.)

| Sequence | PBM E-score |
| --- | --- |
| GGGAACTA | 0.0757 |
| CACGGAGC | 0.14 |
| CTTACTGC | -0.0955 |
| GCGACGTA | -0.16 |
| ACCGCGAA | 0.189 |
| CATACCCC | -0.164 |
| GTTATCAA | 0.0542 |
| CCAATAAC | 0.0852 |
| CAAGCTTC | -0.0338 |
| ACGGAACA | 0.303 |
| ACCGGCTG | 0.191 |
| ATGATGGA | -0.0127 |
| ATCGATCG | 0.0375 |
| AATAGCTC | -0.227 |
| CGACACGC | -0.0996 |
| GGTCATAC | -0.107 |
| GCCCCTCA | -0.252 |
| AACGTGAA | -0.0976 |
| ATCAGCGA | 0.0903 |
| CTTATGGA | -0.109 |
| AAAGCGCG | -0.0924 |
